According to PubChem BioAssay AID540276 (National Center for Advancing Translational Sciences (NCATS), 2011):
In all, about 300,000 compounds went through this assay and about 5,400 (1.8%) were called active. Inconclusive means that the source gave no clear call. Such entries were picked first, then a sample of the others. Calls come from the whole dose curve; tested in HEK293 cells. Where the call is inconclusive, the potency comes from a doubtful curve fit.

Experiment: qHTS for inhibitors of binding or entry into cells for Marburg Virus
Conditions: Marburg virus pseudotyped entry inhibition, cell reporter; activity change, negative = inhibition: at 37.8 µM (top of the series) unless noted
% is set by controls: 0 for no effect and ±100 for the full control effect; potency is the fitted concentration of half-maximal effect.

Question: With `CC(C)NC(=O)COC(=O)c1ccccc1CSC1=NCCS1` as the compound, how does the “activity change, negative = inhibition” value read?
Answer: Its value is inactive: -20.9% [at 46.1 µM].

Question: With `Cc1ccc(S(=O)(=O)Cc2ccc(C(=O)NCCc3ccc(Cl)cc3)o2)cc1` as the compound, how does the Potency read?
Answer: The Potency was inconclusive: 35.5 µM [inhibitor, single point].

Question: With `Cc1ccc(-c2nc(C=Nc3ccc(O)cc3)c(O)o2)cc1` as the compound, how does the Potency read?
Answer: Its Potency is inconclusive: 5.17 µM [inhibitor, partial curve].

Question: With `O=C(Nc1ccc(C(F)(F)F)cc1Cl)c1ccc(Cn2cc(Br)cn2)o1` as the compound, how does the “activity change, negative = inhibition” value read?
Answer: Its value is inactive: -1.95%.

Question: With `COc1ccc(/C=C2/C(=O)N=C(N)N2C)cc1OC` as the compound, how does the “activity change, negative = inhibition” value read?
Answer: Its value is inactive: 3.62%.

Question: For `Brc1cccc(-c2nnc(CN3CCN(c4ccccn4)CC3)o2)c1`, which “activity change, negative = inhibition” value is on record?
Answer: Its value is inactive: 5.17% [at 46.1 µM].

Question: With `O=[N+]([O-])c1cccnc1N/N=C/c1ccccc1O` as the compound, how does the Potency read?
Answer: The Potency was inconclusive: 11.2 µM [inhibitor, partial curve, poor fit].

Question: With `Cc1cccc(CC(=O)Nc2ccc(C(=O)N3CCOCC3)cc2)c1` as the compound, how does the “activity change, negative = inhibition” value read?
Answer: The value was inactive: 10.5%.

Question: Which Potency does the source give for `COc1ccc(-c2ncccc2OC(=O)C23CC4CC(CC(C4)C2)C3)cc1` here?
Answer: The Potency was inconclusive: 4.47 µM [activator, partial curve, poor fit].

Question: For `CCOc1ccc(-c2nnc3sc(-c4c(OC)cccc4OC)nn23)cc1`, which “activity change, negative = inhibition” value is on record?
Answer: The value was inactive: 0%.

Question: Which Potency does the source give for `Cc1ccccc1NC(=O)c1ccc([N+](=O)[O-])o1` here?
Answer: The Potency was inconclusive: 12.6 µM [inhibitor, single point].

Question: With `CCC(=O)Nc1cccc(C(=O)/C=C/c2ccccc2)c1` as the compound, how does the Potency read?
Answer: Its Potency is inconclusive: 31.6 µM [inhibitor, single point].

Question: With `CCOP(=O)(c1ccccc1)C(O)c1ccc(F)cc1` (stereo not drawn) as the compound, how does the Potency read?
Answer: Its Potency is inconclusive: 5.62 µM [activator, single point].

Question: Which “activity change, negative = inhibition” value does the source give for `COC(=O)c1ccc(N)c(N=CC2=C(O)CC(C)(C)CC2=O)c1` here?
Answer: Its value is inactive: -0.0997%.

Question: Which Potency does the source give for `Cc1nn(-c2ccccc2Cl)c(Cl)c1/C=N/Nc1cccc(C(=O)O)c1` here?
Answer: Its Potency is inconclusive: 0.447 µM [inhibitor, full curve, poor fit].

Question: For `O=C(c1ccc(Br)cc1)N1CCN(CCc2ccncc2)CC1`, which Potency is on record?
Answer: Its Potency is inconclusive: 6.31 µM [activator, single point].

Question: Which Potency does the source give for `COc1ccc(C(=O)N/N=C(\C)CC(=O)N2CCN(C=O)CC2)cc1` here?
Answer: The Potency was inconclusive: 0.631 µM [inhibitor, single point].

Question: Which “activity change, negative = inhibition” value does the source give for `COCC(=O)N1CCC(Oc2ccc(C(=O)N(C)C(C)c3ccon3)cc2)CC1` (stereo not drawn) here?
Answer: Its value is inactive: 23.8%.

Question: Which “activity change, negative = inhibition” value does the source give for `COc1ccc(-c2noc(N(c3cccc(Cl)c3)c3nc(-c4ccc(OC)c(OC)c4)no3)n2)cc1OC` here?
Answer: The value was inactive: 5.76% [at 46.1 µM].

Question: Which Potency does the source give for `Nc1nc(CN2CCN(Cc3ccccc3)CC2)nc(Nc2ccccc2)n1` here?
Answer: The Potency was inconclusive: 23.1 µM [inhibitor, single point].

Question: For `CC(C)(C)S(=O)(=O)c1cnc(N2CCOCC2)nc1N`, which Potency is on record?
Answer: Its Potency is inconclusive: 0.0891 µM [inhibitor, full curve, poor fit].

Question: For `Cc1ccc(SCC(=O)OCC(=O)N(CC(C)C)C2CCS(=O)(=O)C2)cc1C` (stereo not drawn), which Potency is on record?
Answer: The Potency was inconclusive: 8.91 µM [activator, partial curve, poor fit].

Question: For `CCCN(CCC)CCCNC(=O)c1ccc(CS(=O)(=O)c2c(Cl)cccc2Cl)o1`, which Potency is on record?
Answer: The Potency was inconclusive: 12.6 µM [inhibitor, single point].

Question: With `COc1ccc(C2CC(c3cccs3)=NN2S(C)(=O)=O)cc1OC` (stereo not drawn) as the compound, how does the “activity change, negative = inhibition” value read?
Answer: Its value is inactive: 6.2% [at 46.1 µM].

Question: For `O=C(NN1C(=O)/C(=C\c2cccnc2)SC1=S)C(c1ccccc1)c1ccccc1`, which Potency is on record?
Answer: Its Potency is inconclusive: 1.26 µM [inhibitor, single point].

Question: With `CC(=O)CCc1ccc(Oc2nc(-c3cccnc3)nc3ccccc23)cc1` as the compound, how does the Potency read?
Answer: The Potency was inconclusive: 15.8 µM [inhibitor, partial curve, poor fit].

Question: With `Cc1cccc(C(=O)Nc2scc(CC(C)C)c2C(=O)O)c1` as the compound, how does the Potency read?
Answer: Its Potency is inconclusive: 35.5 µM [inhibitor, single point].

Question: For `OCCCn1c(-c2ccccc2)csc1=Nc1ccccc1`, which Potency is on record?
Answer: The Potency was inconclusive: 35.5 µM [inhibitor, partial curve, poor fit].

Question: For `CN(CC(=O)Nc1ccc(F)c(F)c1F)C(=O)/C=C/c1ccco1`, which Potency is on record?
Answer: The Potency was inconclusive: 3.98 µM [activator, partial curve, poor fit].

Question: For `CCn1c(SCC(=O)Nc2cc(C)on2)nc2sc3c(c2c1=O)CCCC3`, which Potency is on record?
Answer: Its Potency is inconclusive: 29.1 µM [inhibitor, single point].

Question: For `CCC(C)NC(=O)c1ccccc1NC(=O)/C(=C/c1ccc(OC)cc1)c1ccccc1` (stereo not drawn), which Potency is on record?
Answer: Its Potency is inconclusive: 0.0891 µM [inhibitor, full curve, poor fit].

Question: Which “activity change, negative = inhibition” value does the source give for `CCOc1ccc(C(O)C(CN2CCOCC2)c2ccccc2)cc1` (stereo not drawn) here?
Answer: The value was inactive: 13.9%.

Question: With `CCOc1cc(S(=O)(=O)NCc2ccncc2)ccc1Cl` as the compound, how does the Potency read?
Answer: Its Potency is inconclusive: 4.47 µM [inhibitor, full curve, poor fit].

Question: Which Potency does the source give for `Cc1cccc(-n2ncc3c(=O)[nH]c(SCC(=O)Nc4cc(C)on4)nc32)c1` here?
Answer: Its Potency is inconclusive: 2 µM [inhibitor, single point].

Question: With `Cc1onc(-c2ccccc2)c1C(=O)NNC(=S)NC(=O)/C=C/c1ccccc1` as the compound, how does the Potency read?
Answer: The Potency was inconclusive: 11.2 µM [inhibitor, single point].

Question: For `O=C(N/N=C/c1c(O)n(-c2ccccc2Cl)c(=O)c2ccccc12)C1COc2ccccc2O1` (stereo not drawn), which Potency is on record?
Answer: Its Potency is inconclusive: 35.5 µM [inhibitor, single point].

Question: With `CC(OC(=O)/C=C/c1cccc(C(F)(F)F)c1)C(=O)NC1CCCCC1C` (stereo not drawn) as the compound, how does the “activity change, negative = inhibition” value read?
Answer: Its value is inactive: 3.52% [at 46.1 µM].

Question: With `CCOc1ccccc1C(=O)NC(C)c1ccc2c(c1)OCO2` (stereo not drawn) as the compound, how does the Potency read?
Answer: Its Potency is inconclusive: 16.4 µM [inhibitor, partial curve].

Question: With `Cc1ccccc1/C(N)=N/OC(=O)c1cccs1` as the compound, how does the “activity change, negative = inhibition” value read?
Answer: Its value is inactive: 16.9%.

Question: Which Potency does the source give for `Cc1ccc(CN2CCN(Cc3cccc4c3OCO4)CC2CCO)cc1` (stereo not drawn) here?
Answer: Its Potency is inconclusive: 28.2 µM [inhibitor, single point].

Question: For `CCOC(=O)c1c(-c2ccc(F)cc2)csc1/N=C/N(C)C`, which Potency is on record?
Answer: Its Potency is inconclusive: 35.5 µM [inhibitor, single point].

Question: With `COc1ccc(N=Nc2c(C)[nH][nH]c2=O)cc1` as the compound, how does the “activity change, negative = inhibition” value read?
Answer: The value was inactive: -3.49% [at 46.1 µM].

Question: Which “activity change, negative = inhibition” value does the source give for `Cc1ccc(S(=O)(=O)N2CCCCC2)cc1NC(=O)CCCOc1ccccc1` here?
Answer: Its value is inactive: -28.1% [at 46.1 µM].

Question: For `O=C(Nc1ccc(OC(F)(F)F)cc1)c1ccc2c(c1)no[n+]2[O-]`, which Potency is on record?
Answer: The Potency was inconclusive: 28.2 µM [inhibitor, single point].

Question: Which Potency does the source give for `CN(C)/C=N/c1c(C#N)cnn1-c1ncnc2sc(-c3ccccc3)cc12` here?
Answer: The Potency was inconclusive: 35.5 µM [inhibitor, single point].

Question: For `COc1cc(-c2nc(-c3ccccc3)c(-c3cccs3)[nH]2)cc(OC)c1OC`, which Potency is on record?
Answer: The Potency was inconclusive: 11.6 µM [inhibitor, partial curve, poor fit].

Question: With `COC(=O)c1ccc(/C=C2\SC(=S)N(CCCC(=O)NCCCN3CCOCC3)C2=O)cc1` as the compound, how does the Potency read?
Answer: The Potency was inconclusive: 8.91 µM [inhibitor, partial curve, poor fit].

Question: For `COCCCNC(=O)c1c(N)n(/N=C/c2cccs2)c2nc3ccccc3nc12`, which “activity change, negative = inhibition” value is on record?
Answer: The value was inactive: -8.82% [at 46.1 µM].

Question: With `COc1ccc(OCc2nnc(SCC(=O)N3CCCc4ccccc43)n2-c2ccc(C)cc2)cc1` as the compound, how does the Potency read?
Answer: The Potency was inconclusive: 8.2 µM [inhibitor, partial curve, poor fit].

Question: With `Cc1nn(C(C)(C)C)c(N)c1-c1ccccc1` as the compound, how does the “activity change, negative = inhibition” value read?
Answer: The value was inactive: 5.08%.

Question: Which Potency does the source give for `c1ccc(-c2oc3ncnc(NCCCN4CCOCC4)c3c2-c2ccccc2)cc1` here?
Answer: Its Potency is inconclusive: 29.1 µM [inhibitor, single point].

Question: Which Potency does the source give for `Cc1sc(NC(=O)C2C3CCC(O3)C2C(=O)O)nc1-c1ccc(CC(C)C)cc1` (stereo not drawn) here?
Answer: Its Potency is inconclusive: 5.62 µM [activator, single point].

Question: Which Potency does the source give for `COc1ccc(C(=O)Oc2cccc(Nc3ncnc4ccccc34)c2)cc1OC` here?
Answer: The Potency was inconclusive: 35.5 µM [inhibitor, single point].

Question: Which Potency does the source give for `O=C(NCc1ccccc1Cl)C1CCCN(C(=O)Nc2ccc(F)cc2)C1` (stereo not drawn) here?
Answer: The Potency was inconclusive: 17.8 µM [inhibitor, single point].

Question: With `CCCCCCCC(=O)OC(CN1CCCCC1)CN1CCCC1=O` (stereo not drawn) as the compound, how does the Potency read?
Answer: Its Potency is inconclusive: 11.6 µM [activator, partial curve, poor fit].

Question: For `Cc1ccc(S(=O)(=O)n2nc(OC(=O)c3cccc(F)c3)cc2N)cc1`, which “activity change, negative = inhibition” value is on record?
Answer: The value was inactive: -1.37% [at 46.1 µM].

Question: With `CN(CC(=O)Nc1ccc(Cl)c(C(F)(F)F)c1)C(=O)c1cc(-c2ccncc2)nc2ccccc12` as the compound, how does the Potency read?
Answer: Its Potency is inconclusive: 3.98 µM [inhibitor, partial curve, poor fit].

Question: Which “activity change, negative = inhibition” value does the source give for `O=C(C1CCCN(CCCc2ccccc2)C1)N1CCCCCC1` (stereo not drawn) here?
Answer: Its value is inactive: 6.19%.

Question: With `CN(CC(=O)Nc1ccc(OC(F)(F)F)cc1)C(=O)Cc1c(Cl)cccc1Cl` as the compound, how does the Potency read?
Answer: The Potency was inconclusive: 35.5 µM [inhibitor, single point].

Question: With `N#Cc1ccccc1Cn1c(=O)n(-c2cccc(C(F)(F)F)c2)c(=O)c2sccc21` as the compound, how does the Potency read?
Answer: The Potency was inconclusive: 2.82 µM [inhibitor, single point].

Question: Which Potency does the source give for `O=C(CCc1nnc(-c2ccccc2)o1)NCc1c(F)cccc1F` here?
Answer: Its Potency is inconclusive: 35.5 µM [activator, single point].

Question: With `Cc1cc(Oc2ccccc2)nc(SCC(=O)Nc2ccc(Cl)cc2Cl)n1` as the compound, how does the Potency read?
Answer: Its Potency is inconclusive: 29.1 µM [inhibitor, single point].

Question: Which Potency does the source give for `O=C(Cn1cnc2ccccc2c1=O)c1ccc(Br)cc1` here?
Answer: The Potency was inconclusive: 0.891 µM [activator, full curve, poor fit].

Question: With `CCN=c1scc(C)n1/N=C/c1cc(Br)c(O)c(Br)c1` as the compound, how does the Potency read?
Answer: Its Potency is inconclusive: 20 µM [inhibitor, single point].

Question: With `Cc1nc(-n2nnc3ccccc32)c2c3c(sc2n1)CCCC3` as the compound, how does the “activity change, negative = inhibition” value read?
Answer: The value was inactive: -18.3%.

Question: For `CCN(CC)S(=O)(=O)c1ccc(Cl)c(C(=O)Nc2ccc(Cl)cc2[N+](=O)[O-])c1`, which Potency is on record?
Answer: Its Potency is inconclusive: 11.2 µM [inhibitor, single point].

Question: Which “activity change, negative = inhibition” value does the source give for `O=C(O)CCn1c(=O)c2cccn2c2cccnc21` here?
Answer: The value was inactive: -3.21% [at 46.1 µM].

Question: Which Potency does the source give for `OC(CNC1CCCC1)COc1ccc(-c2ccccc2)cc1` (stereo not drawn) here?
Answer: Its Potency is inconclusive: 1.41 µM [inhibitor, single point].
